According to publication PMC3432076:
For at least one entry, the source does not settle the construct or the ends of the probe. At least one result comes from cells or an extract, where the contact may be indirect.

By UniProt entry, the sequences of proteins in these tests, tags left out. Where a name states a change or a piece, a line headed by the entry shows the natural chain unless it says otherwise.
UniProt Q7RVQ8: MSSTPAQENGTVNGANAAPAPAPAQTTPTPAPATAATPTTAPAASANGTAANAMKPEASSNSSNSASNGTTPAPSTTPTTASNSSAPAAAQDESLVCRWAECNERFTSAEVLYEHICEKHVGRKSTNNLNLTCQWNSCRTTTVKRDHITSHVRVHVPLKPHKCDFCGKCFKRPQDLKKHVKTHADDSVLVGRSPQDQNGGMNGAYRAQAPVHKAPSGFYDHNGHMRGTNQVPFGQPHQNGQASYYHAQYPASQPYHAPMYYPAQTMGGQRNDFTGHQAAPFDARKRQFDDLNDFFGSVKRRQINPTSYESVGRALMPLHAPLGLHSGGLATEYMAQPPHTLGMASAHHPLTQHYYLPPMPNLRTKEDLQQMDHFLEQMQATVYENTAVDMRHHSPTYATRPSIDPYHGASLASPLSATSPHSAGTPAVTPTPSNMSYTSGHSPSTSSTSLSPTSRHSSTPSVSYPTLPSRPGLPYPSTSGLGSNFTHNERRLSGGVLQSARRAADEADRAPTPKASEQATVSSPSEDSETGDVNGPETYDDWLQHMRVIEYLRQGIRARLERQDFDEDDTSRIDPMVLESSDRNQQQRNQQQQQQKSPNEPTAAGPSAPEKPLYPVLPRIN

Legend:
[1] = molecular target: PACC, endogenous (heparin fraction, pH 5.8 mycelia) (Neurospora crassa wild type) (UniProt Q7RVQ8); experiment: competition with a labelled probe; conditions: pH 5.8 fraction, competes with pacC probe; EMSA: 25 mM HEPES-KOH pH 7.9, 20 mM KCl, 10% glycerol, 1 mM DTT, 0.2 mM EDTA, 0.5 mM PMSF, 12.5 mM benzamidine, 5 µg/mL antipain and pepstatin A, 2 µg poly(dI-dC); protein in an extract
[2] = molecular target: PACC, endogenous (heparin fraction, pH 7.8 mycelia, 60 min) (Neurospora crassa wild type) (UniProt Q7RVQ8); experiment: competition with a labelled probe; conditions: pH 7.8 fraction, competes only at 20- and 30-fold molar excess; EMSA: 25 mM HEPES-KOH pH 7.9, 20 mM KCl, 10% glycerol, 1 mM DTT, 0.2 mM EDTA, 0.5 mM PMSF, 12.5 mM benzamidine, 5 µg/mL antipain and pepstatin A, 2 µg poly(dI-dC); protein in an extract

CTTTGGGCCAGCTTGGCCGTGAGATCG (double strand) [oligo pacC (27 bp)]
binding result [1]: binds | binding result [2]: binds
